Here are results for six sequences from paper PMC9837905.

The exact form of at least one protein or probe is not confirmed. For part of these data: Negatives hold for the conditions tested.

The subject of data set [1] is GST-HuMYB132. Kind of data set: competition with a labelled probe. Conditions: LightShift Chemiluminescent EMSA Kit, 50 ng GST-HuMYB132, 6% native PAGE, pH and temperature not stated, recombinant protein, protein details: N-terminal GST (pGEX-4T-1). On the technique in general: A gel shift assay detects complexes by their altered migration in electrophoresis.
For data set [2], the system named is GST-HuMYB132. Kind of data set: EMSA. Conditions: unlabeled probe weakens the shift; LightShift Chemiluminescent EMSA Kit, 50 ng GST-HuMYB132, 6% native PAGE; pH and temperature not stated; recombinant protein; protein details: N-terminal GST (pGEX-4T-1); label: 3' biotin.

Take “GATCGATTCTCAGAAAAAAAAAAACCCGCCCTCCCATTTTCCCTCTCCTC (double strand) [HuADH1 mutant probe]”: the binding result in the data set with GST-HuMYB132 [1] (EMSA competitor against N1, no significant change) was “no binding”.
With “GATCGATTCTCAGCAACCACCTAACCCGCCCTCCCATTTTCCCTCTCCTC (double strand) [HuADH1 promoter probe]”, in the data set with GST-HuMYB132 [2], the binding result is on record as “binds”.
Regarding “AAAGACTTAAAAAAAGTATAAAATTTTTTTGGACGAATGATGCACAAATT (double strand) [HuDODA1 mutant probe]”, in the data set on GST-HuMYB132 [1] (EMSA competitor against N3, no significant change), the binding result is “no binding”.
Take “ATCCATCAAAAAAAAAAAAATTTTATAGAATAGAAAAAAAAACTCAGCTC (double strand) [HuCYP76AD1-1 mutant probe]”: the binding result with GST-HuMYB132 [1] (EMSA competitor against N2, no significant change) is on record as “no binding”.
Regarding “AAAGACTTCAGTTGAGTATAAAAGGTTAGGGGACGAATGATGCACAAATT (double strand) [HuDODA1 promoter probe]”, in the data set on GST-HuMYB132 [2], the binding result is “binds”.
As for “ATCCATCAACCTAACCTAAATTTTATAGAATAGAATAACTGACTCAGCTC (double strand) [HuCYP76AD1-1 promoter probe]”, the binding result in the data set on GST-HuMYB132 [2] is on record as “binds”.
